Test results as given in paper PMC3648463, “Common Interactions between S100A4 and S100A9 Defined by a Novel Chemical Probe” (PLoS ONE, 2013).
No constants are given. Whether binding was seen depends on the method and setting. For part of these data: In cells and extracts the contact can be indirect. Some binding calls cover weakened binding; strength is not graded here. Blank lines part the entries; values can stand above or below the binder they belong to.

Sequences of proteins named here, by UniProt entry; tags and fusion partners are left off.
UniProt P26447: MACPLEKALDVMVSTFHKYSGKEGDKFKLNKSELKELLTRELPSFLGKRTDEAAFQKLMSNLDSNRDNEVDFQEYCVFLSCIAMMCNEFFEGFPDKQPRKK

Columns and labels:
[1] = molecular target: recombinant human S100A9 (human) (UniProt P06702); assay: SPR; S100A1, A4, A7, A9 and A13 (~1.3 µg/mL) injected (2 min at 30 µL/min) over immobilised S100A4 and S100A9 (~2.5 kRU); 1 mM Ca++ and 20 µM Zn++; responses at late association phase; both purified
[2] = molecular target: recombinant human S100A4 (human) (UniProt P26447); assay: as above
[3] = molecular target: human S100A4 expressed in 293T cells (human) (UniProt P26447); assay: cross-linking; 293T cells co-transfected with S100A4 and S100A9 cDNA, 24 h; 1 mM DSS in PBS, 1 h on ice; lysate, SDS-PAGE, western blot with anti-S100A4 or anti-S100A9
[4] = molecular target: recombinant human S100A4 (human) (UniProt P26447); assay: SPR; S100A4 and S100A9 (~1.3 µg/mL) injected over immobilised S100A4 or S100A9 in HBS-P with 1 mM Ca++ without Zn++; both purified

- binding [1]: no binding (tested: ~1.3 µg/mL)
- binding [2]: no binding (tested: ~1.3 µg/mL)
B1: recombinant human S100A13 (protein, UniProt Q99584 1-98)
chain: MAAEPLTELEESIETVVTTFFTFARQEGRKDSLSVNEFKELVTQQLPHLLKDVGSLDEKMKSLDVNQDSELKFNEYWRLIGELAKEIRKKKDLKIRKK

- binding [1]: no binding (tested: ~1.3 µg/mL)
- binding [2]: no binding (tested: ~1.3 µg/mL)
B2: recombinant human S100A7 (protein, UniProt P31151 1-101)
chain: MSNTQAERSIIGMIDMFHKYTRRDDKIEKPSLLTMMKENFPNFLSACDKKGTNYLADVFEKKDKNEDKKIDFSEFLSLLGDIATDYHKQSHGAAPCSGGSQ

- binding [3]: binds
B3: human S100A9 expressed in 293T cells (protein, UniProt P06702 1-114)
chain: MTCKMSQLERNIETIINTFHQYSVKLGHPDTLNQGEFKELVRKDLQNFLKKENKNEKVIEHIMEDLDTNADKQLSFEEFIMLMARLTWASHEKMHEGDEGPGHHHKPGLGEGTP

B4: recombinant human S100A9 (protein, UniProt P06702 1-114)
chain: B3 chain
- binding [4]: no binding (condition: 1 mM Ca++ without 20 µM Zn++)
